Measured values published in paper PMC10067857.
These are yes or no findings as the source states them, for the method shown. Binding seen in cells or lysates may run through a third protein. Here binding means that the protein was enriched with, or labelled near, the bait; the list need not be complete.

Sequences of proteins named here, by UniProt entry; tags and fusion partners are left off.
UniProt Q9Y572: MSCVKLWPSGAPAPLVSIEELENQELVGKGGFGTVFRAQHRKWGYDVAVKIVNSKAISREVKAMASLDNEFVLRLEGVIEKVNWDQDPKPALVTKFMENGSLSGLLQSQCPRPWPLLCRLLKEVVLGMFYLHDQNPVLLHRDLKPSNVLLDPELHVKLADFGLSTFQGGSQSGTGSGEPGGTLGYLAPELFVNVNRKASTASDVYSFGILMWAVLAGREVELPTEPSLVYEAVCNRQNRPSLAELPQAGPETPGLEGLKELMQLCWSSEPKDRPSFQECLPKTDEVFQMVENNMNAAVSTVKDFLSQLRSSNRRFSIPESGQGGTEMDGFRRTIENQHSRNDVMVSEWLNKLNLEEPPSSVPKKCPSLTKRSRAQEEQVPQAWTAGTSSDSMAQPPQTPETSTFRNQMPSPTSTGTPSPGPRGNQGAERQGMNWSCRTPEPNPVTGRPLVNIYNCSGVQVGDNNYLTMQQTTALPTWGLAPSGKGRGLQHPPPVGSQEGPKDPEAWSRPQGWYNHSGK
UniProt Q99873: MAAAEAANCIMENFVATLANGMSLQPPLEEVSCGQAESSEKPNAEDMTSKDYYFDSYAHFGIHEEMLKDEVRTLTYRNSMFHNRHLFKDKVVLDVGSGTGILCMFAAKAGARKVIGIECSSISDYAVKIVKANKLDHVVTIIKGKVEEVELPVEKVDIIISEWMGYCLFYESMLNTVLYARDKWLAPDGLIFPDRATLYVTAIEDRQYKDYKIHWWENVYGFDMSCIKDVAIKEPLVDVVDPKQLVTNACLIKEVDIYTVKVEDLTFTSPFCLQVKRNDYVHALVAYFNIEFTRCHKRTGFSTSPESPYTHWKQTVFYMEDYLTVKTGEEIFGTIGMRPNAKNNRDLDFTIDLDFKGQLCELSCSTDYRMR

Target: RIP3, bait of the pull-down analysed by mass spectrum (not stated (human or mouse cDNA cloned)) (UniProt Q9Y572)
Assay: affinity purification with mass spectrometry; RIP3 interaction pull-down proteins analysed by mass spectrum; cells, bait and conditions not told

PRMT1 identified by mass spectrum in the RIP3 pull-down (from UniProt Q99873 1-371) (enzyme)
binding: binds
